Reference: paper PMC11991916
These are yes or no findings as the source states them, for the method shown. In cells and extracts the contact can be indirect. Where a sequence is shown, tags or fusion partners need not be part of it.

The chains behind the UniProt entries cited, without tags or fusion partners. Residues count along the entry.
UniProt P25705, residues 44-553: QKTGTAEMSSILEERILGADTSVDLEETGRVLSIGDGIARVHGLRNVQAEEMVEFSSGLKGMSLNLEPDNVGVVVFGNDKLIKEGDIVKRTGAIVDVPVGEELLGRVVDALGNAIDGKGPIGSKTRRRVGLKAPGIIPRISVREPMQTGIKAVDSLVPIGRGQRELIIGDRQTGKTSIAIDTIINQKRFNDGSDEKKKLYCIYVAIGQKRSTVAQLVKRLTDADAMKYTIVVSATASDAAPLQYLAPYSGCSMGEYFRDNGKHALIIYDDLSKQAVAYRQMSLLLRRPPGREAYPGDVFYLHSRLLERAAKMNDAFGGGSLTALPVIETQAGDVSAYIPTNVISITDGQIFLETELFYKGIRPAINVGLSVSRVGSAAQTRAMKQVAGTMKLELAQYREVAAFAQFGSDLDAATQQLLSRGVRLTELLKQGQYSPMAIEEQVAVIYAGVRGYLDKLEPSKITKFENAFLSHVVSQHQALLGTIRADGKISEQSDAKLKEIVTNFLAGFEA

Biological target: T1, PHB1–DK (prohibitin 1 fused to the fluorescent protein Dreiklang, expressed from the native genomic locus) (human) (UniProt P35232)
T1 sequence: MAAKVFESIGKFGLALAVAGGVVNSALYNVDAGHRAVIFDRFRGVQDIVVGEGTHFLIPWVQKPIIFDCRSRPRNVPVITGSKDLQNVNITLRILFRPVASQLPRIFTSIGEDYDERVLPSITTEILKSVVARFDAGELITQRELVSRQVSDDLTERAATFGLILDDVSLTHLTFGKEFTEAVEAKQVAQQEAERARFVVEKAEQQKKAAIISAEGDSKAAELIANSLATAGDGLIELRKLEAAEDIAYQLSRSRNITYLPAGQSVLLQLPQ
Test: co-IP; GFP-Trap agarose beads (nanobody against DK) mixed with 800 µg extract of mitochondria isolated from PHB1-DK or PHB2-DK knock-in U2OS cells; 20 mM Tris-HCl pH 7.5, 50 mM NaCl, 0.5 mM EDTA, 10% glycerol, 0.3% digitonin; 4 °C, 1 h; ten washes; western blot

## ATP5A (from UniProt P25705 44-553)
  binding: no binding
